Values from PubChem BioAssay AID1259254 (NCATS, 2017)

Screen: 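Finding genes that stop cells copying their DNA twice in one cycle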 (primary screen)
Cells: human HCT116 colorectal cancer cells
Reagents: single siRNA against human genes
Timing: 3 days
Read-out: 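Imaged Hoechst DNA stain sorts each cell into a cycle phase by DNA amount; per plate, G2 fraction set to 0% for non-targeting and 100% for GMNN siRNA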
Reading the numbers: G2 robust z-score and G2 cells, % of GMNN control: higher = more G2 cells, more excess DNA replication
Rule for the call: 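Active siRNAs have a G2 robust z of 5 or more median absolute deviations over the median, which in these data means about 38% or higher of GMNN control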
This is a random part of about 59,000 reagents. Of all reagents, about 1,550 (2.6%) got an active call. 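G2 share is only a proxy for re-replication; each gene was hit by three separate siRNAs, and active genes were retested.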 Reagents against one gene are numbered here. Not all columns of the deposit are shown. Not stated in the record: the amount of reagent.

IBTK #1 | G2 robust z-score: -0.237; G2 cells, % of GMNN control: 1.3; Outcome: inactive
IBTK #2 | G2 robust z-score: 0.804; G2 cells, % of GMNN control: 8.62; Outcome: inactive
IBTK #3 | G2 robust z-score: -0.694; G2 cells, % of GMNN control: -1.91; Outcome: inactive
SPINK2 #1 | G2 robust z-score: -0.0113; G2 cells, % of GMNN control: 2.89; Outcome: inactive
SPINK2 #2 | G2 robust z-score: -0.0348; G2 cells, % of GMNN control: 2.72; Outcome: inactive
SPINK2 #3 | G2 robust z-score: -0.0786; G2 cells, % of GMNN control: 2.41; Outcome: inactive
TTLL4 #1 | G2 robust z-score: -0.226; G2 cells, % of GMNN control: 1.38; Outcome: inactive
TTLL4 #2 | G2 robust z-score: 4.25; G2 cells, % of GMNN control: 32.9; Outcome: inactive
TTLL4 #3 | G2 robust z-score: 1.31; G2 cells, % of GMNN control: 12.2; Outcome: inactive
BACE1 #1 | G2 robust z-score: 0.127; G2 cells, % of GMNN control: 3.86; Outcome: inactive
BACE1 #2 | G2 robust z-score: 2.16; G2 cells, % of GMNN control: 18.1; Outcome: inactive
BACE1 #3 | G2 robust z-score: -1.16; G2 cells, % of GMNN control: -5.23; Outcome: inactive
TSN #1 | G2 robust z-score: -0.699; G2 cells, % of GMNN control: -1.95; Outcome: inactive
TSN #2 | G2 robust z-score: -0.97; G2 cells, % of GMNN control: -3.86; Outcome: inactive
TSN #3 | G2 robust z-score: -0.217; G2 cells, % of GMNN control: 1.44; Outcome: inactive
MN1 #1 | G2 robust z-score: 1.4; G2 cells, % of GMNN control: 12.8; Outcome: inactive
MN1 #2 | G2 robust z-score: -0.719; G2 cells, % of GMNN control: -2.09; Outcome: inactive
MN1 #3 | G2 robust z-score: 0.931; G2 cells, % of GMNN control: 9.52; Outcome: inactive

Not a retest: 2 of the entries above.
MN1 #1 | G2 robust z-score: 1.4; G2 cells, % of GMNN control: 12.8; Outcome: inactive
MN1 #2 | G2 robust z-score: -0.719; G2 cells, % of GMNN control: -2.09; Outcome: inactive
